Source: the supplement of paper PMC4371806
In all, about 1,600 compounds were measured (“plate-normalized OD600 growth (mean of duplicates)”: median about 0.31, lowest 2% from about 0.23 on). This is one part of the list.

System: Escherichia coli BW25113
Assay: plate-normalized OD600 growth (mean of duplicates) (OD600 (normalized)); higher = more growth (less inhibition)
Settings: 10 µM
Description: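 E. coli BW25113 in LB (100 µl, 96-well, no shaking) was exposed to 10 µM of each compound (here the ChemBridge subset of a ~30,000-member library) and grown at 37°C for 24 h or 15°C for 48 h, in duplicate. Growth was read as OD600 and the duplicate ODs were normalized across screening plates to correct plate-to-plate variation.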

SMILES	plate-normalized OD600 growth (temperature: 15°C, 48 h)	plate-normalized OD600 growth (temperature: 37°C, 24 h)
Cc1ccc(NC(=O)C(C#N)=C2NC(C)(C)Cc3ccccc32)c(C)c1	0.249	0.613
CN(C)CCN(Cc1ccccc1)Cc1cccc(Cl)c1	0.261	0.625
COc1ccc(-c2csc(/C(C#N)=C/c3ccc(OC)c(OC)c3)n2)cc1	0.286	0.636
COc1ccc(NS(=O)(=O)c2ccc3c(c2)OCCO3)cc1OC	0.261	0.637
OC(COCc1ccc2c(c1)OCO2)CN1CCCCC1 (stereo unspecified)	0.261	0.656
O=C1CCCc2c1nn(-c1ccccc1)[n+]2[O-]	0.249	0.618
Cn1c(=O)c2c(nc(N3CCN(c4ccc([N+](=O)[O-])cc4)CC3)n2C)n(C)c1=O	0.261	0.616
N#Cc1cc([N+](=O)[O-])cnc1SCC(=O)Nc1ccccc1	0.273	0.645
CCSc1sc(CC)cc1C(N)=O	0.239	0.621
CC(C)N(C(=O)c1ccc(C(=O)Nc2ccc(Br)cc2)cc1)C(C)C	0.252	0.65
COc1cc(OC)c(C(=O)CCC(=O)O)cc1OC	0.252	0.663
Cc1c(CN2CC3(C)CC2CC(C)(C)C3)c(=O)n(-c2ccccc2)n1C (stereo unspecified)	0.241	0.611
Cc1cc(C)cc(OCC(O)CN2CCCCC2)c1 (stereo unspecified)	0.259	0.636
CC(C)C(=O)N1CCN(c2ccc(F)cc2)CC1	0.249	0.599
N#CC1=C(N)OC2=C(C(=O)CC(c3ccccc3)C2)C1c1c[nH]c2ccccc12 (stereo unspecified)	0.274	0.641
Cc1ccc(-c2csc(C(C#N)=CC=Cc3ccc([N+](=O)[O-])cc3)n2)c(C)c1	0.248	0.598
COc1ccc(C2C(=C(O)c3ccc(C)cc3)C(=O)C(=O)N2CCN2CCOCC2)cc1 (stereo unspecified)	0.242	0.602
O=C(Nc1ccccc1[N+](=O)[O-])c1cccc(S(=O)(=O)N2CCOCC2)c1	0.244	0.615
CCOC(=O)Nc1ccc(Cl)cc1[N+](=O)[O-]	0.254	0.603
CC1=NN(c2cc(C)nc(-c3ccccc3O)n2)C(=O)C1	0.253	0.614
Cc1ccccc1C(=O)Nc1ccc(Br)cc1	0.282	0.631
c1ccc2[nH]c(SCCN3CCCC3)nc2c1	0.26	0.627
O=[N+]([O-])c1ccc(N2CCCC2)cc1N1CCOCC1	0.259	0.647

In another format: four of the compounds above
Cn1c(=O)c2c(nc(N3CCN(c4ccc([N+](=O)[O-])cc4)CC3)n2C)n(C)c1=O
  plate-normalized OD600 growth (temperature: 15°C, 48 h): 0.261
  plate-normalized OD600 growth (temperature: 37°C, 24 h): 0.616
N#Cc1cc([N+](=O)[O-])cnc1SCC(=O)Nc1ccccc1
  plate-normalized OD600 growth (temperature: 15°C, 48 h): 0.273
  plate-normalized OD600 growth (temperature: 37°C, 24 h): 0.645
CCSc1sc(CC)cc1C(N)=O
  plate-normalized OD600 growth (temperature: 15°C, 48 h): 0.239
  plate-normalized OD600 growth (temperature: 37°C, 24 h): 0.621
CC(C)N(C(=O)c1ccc(C(=O)Nc2ccc(Br)cc2)cc1)C(C)C
  plate-normalized OD600 growth (temperature: 15°C, 48 h): 0.252
  plate-normalized OD600 growth (temperature: 37°C, 24 h): 0.65

(further entries)

SMILES	plate-normalized OD600 growth (temperature: 15°C, 48 h)	plate-normalized OD600 growth (temperature: 37°C, 24 h)
COc1ccc(-c2nc(-c3ccc(Cl)cc3)no2)cc1	0.247	0.616
CC1CCc2sc(NC(=O)c3ccc(Br)o3)c(C#N)c2C1 (stereo unspecified)	0.234	0.592
CC(O)(CC(=O)O)C12CC3CC(CC(C3)C1)C2 (stereo unspecified)	0.266	0.636
CCC1CCc2c(sc(N)c2C#N)C1 (stereo unspecified)	0.237	0.605
CC(=O)c1c(-c2ccccc2)c2cc(Cl)ccc2[nH]c1=O	0.228	0.618
CCN(CC)CCOc1ccccc1Br	0.233	0.621
CSc1ccc(C2C(C#N)=C(N)Oc3nc(C)[nH]c(=O)c32)cc1 (stereo unspecified)	0.252	0.6
O=C(NN1CCOCC1)c1ccc(Cl)s1	0.243	0.622
CCc1ccccc1NS(=O)(=O)c1ccc(F)cc1	0.21	0.618
CC(NC(=O)COc1ccc([N+](=O)[O-])cc1)c1ccccc1 (stereo unspecified)	0.252	0.612
N#Cc1c(N)nc2c(c1-c1ccco1)CCCCCC2	0.249	0.615
CCCN(CCO)Cc1cc(OC)c(OC)cc1Br	0.263	0.609
COc1ccc(-c2c(C)nn3c(C)cc(C)nc23)cc1	0.249	0.614
NNC(=O)C(O)c1ccc(Cl)cc1 (stereo unspecified)	0.272	0.623
O=C(O)c1cc(S(=O)(=O)N2CCCC2)ccc1Br	0.262	0.637
O=C(O)C1CC(C(=O)O)C(C(=O)O)CC1C(=O)O (stereo unspecified)	0.242	0.612
CCCC(=O)N1CCN(c2cc(N3CCCCC3)c(F)cc2[N+](=O)[O-])CC1	0.254	0.631
CN1CCC(N(C)Cc2ccc3c(c2)OCO3)CC1	0.257	0.646
O=C(O)c1cc(NC(=O)c2cccc([N+](=O)[O-])c2)cc(C(=O)O)c1	0.254	0.609
CCN(CC)C(=O)C1CCCN(Cc2ccc3c(c2)OCO3)C1 (stereo unspecified)	0.254	0.622
Cc1ccc(C(=O)/C=C/c2ccc(F)cc2)o1	0.25	0.63
Oc1ccc(CN2CCN(c3ncccn3)CC2)cc1	0.244	0.631
O=[N+]([O-])c1ccc(-c2nnc3ccc4ccccc4n23)cc1	0.239	0.625

SMILES	plate-normalized OD600 growth (temperature: 15°C, 48 h)	plate-normalized OD600 growth (temperature: 37°C, 24 h)
O=C(Nc1ccncc1)c1ccc(Cl)cc1Cl	0.263	0.623
OC(COc1ccc(C23CC4CC(CC(C4)C2)C3)cc1)CN1CCOCC1 (stereo unspecified)	0.243	0.592
O=C(Nc1ccccc1NC(=O)c1ccccc1F)c1ccccc1F	0.263	0.627
C/C=C(\C)CN1CCN(c2ccc(C(C)=O)cc2)CC1	0.237	0.587
Cc1nc2c(c(=O)[nH]1)C(c1cccnc1)C(C#N)=C(N)O2 (stereo unspecified)	0.245	0.622
Cc1ccc(C)c(OCCCCn2ccnc2)c1	0.235	0.596
O=C(O)CCCC(=O)Nc1cccc([N+](=O)[O-])c1	0.236	0.626
COc1ccc(NC(=O)Nc2ccc(F)c(Cl)c2)cc1	0.283	0.58
O=[N+]([O-])c1ccc(/C=C/c2ccc3ccccc3n2)s1	0.235	0.619
Cc1noc(C)c1Cc1c(C)noc1C	0.263	0.639
Cn1c(-c2ccccc2)nc2cnccc21	0.266	0.648
COc1ccc(C(=O)Nc2ccc(OC)cc2OC)cc1	0.258	0.652
CC(C)(C)NC(=O)c1ccccc1C(=O)NC(C)(C)C	0.263	0.63
CC(C)(C)N(Cc1ccccc1)C(=O)c1ccco1	0.251	0.62
CC(=O)c1c(C)[nH]n(-c2ccccc2)c1=O	0.252	0.618
N#CC(=Cc1ccc(N2CCOCC2)cc1)c1nc2ccccc2[nH]1	0.252	0.599
CN(C)c1ccc(-c2nc3ccccc3o2)cc1	0.252	0.615
c1ccc(OCCCCN2CCCCC2)cc1	0.241	0.621
OCCN1CCN(C/C=C/c2ccccc2)CC1	0.257	0.614
O=C1CC(NCCc2ccccc2)C(=O)N1c1cccc(Cl)c1 (stereo unspecified)	0.255	0.624
O=C(COc1ccc(Cl)cc1Cl)NC1CCCC1	0.252	0.616
N#C/C(C(=O)c1ccccc1)=C1/CCCCCN1	0.252	0.604
